Results from paper PMC12102759.
No constants are given. Whether binding was seen depends on the method and setting. Binding calls can cover weak binding; strength is not graded here.

Target: GST-tagged PP2A B56 regulatory subunit (1–486) (human)
Test: peptide phage display selection with NGS; only the target purified

B1: CDCA2 586–603 peptide on M13 phage (peptide)
peptide: KKPLLSPIPELPEVPEMT
B1 was tested, and the binding was “binds”.

B2: AXIN1 235–252 peptide on M13 phage (peptide)
peptide: SGYLPTLNEDEEWKCDQD
In the case of B2, the binding is reported as “binds”.
